Data published in PubChem BioAssay AID1794845 (National Center for Advancing Translational Sciences (NCATS), 2023).
The whole screen tested about 6,900 compounds, of which fewer than 10 were called active. Calls follow the shape of the dose curve; as a rule, active = well fitted curve in the direction sought with a large enough effect; inconclusive = small, poorly fitted or top-dose-only effect, or another doubt; inactive = no such curve, though single readings can be large or run the other way. This is one part of the list.

Amino acid sequences for entries named in this document (tags omitted). A change or cut given only in a name is not applied to a line headed by its entry.
UniProt C7C422: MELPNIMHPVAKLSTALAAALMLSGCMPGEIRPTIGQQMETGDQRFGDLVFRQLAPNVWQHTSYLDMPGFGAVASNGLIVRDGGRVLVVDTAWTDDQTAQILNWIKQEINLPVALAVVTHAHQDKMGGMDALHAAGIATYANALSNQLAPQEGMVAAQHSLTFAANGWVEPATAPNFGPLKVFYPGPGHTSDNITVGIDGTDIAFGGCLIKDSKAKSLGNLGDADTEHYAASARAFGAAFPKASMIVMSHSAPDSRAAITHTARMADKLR

Biological target: Metallo-beta-lactamase type 2 (Klebsiella pneumoniae) (UniProt C7C422)
Experiment: qHTS to identify inhibitors of the New Delhi Metallo-beta-lactamase (NDM): primary screen against the NCATS Gemini Collection; also: % of control where 0% means no effect
Details: NDM-1 enzyme, meropenem hydrolysis, absorbance 300 nm; at 38.4 µM (top of the series) unless noted
How it was run: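 NDM-1 at 2 nM final in 50 mM HEPES pH 7.0, 1 uM ZnSO4, 0.01% Tween20, preincubated >30 min with compound. Meropenem 50 uM final added; absorbance at 300 nm after 30 min.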

Activity % (negative = inhibition), inactive:
CN(C)Cc1nnc(C2CC(NC(=O)c3conc3-c3ccccc3)C2)n1C (stereo not given) -0.0569%
CCN1CC(c2nc(-c3ccc4nc[nH]c4c3)no2)CCC1=O (stereo not given) -10.1%
CCn1cc(CN(C)C(=O)CN2C(=O)C(Oc3ccc(F)cc3)C23CCCCC3)c(C)n1 (stereo not given) 3.25%
Cc1cnc(-c2cccnc2)n1C1CCCN(CC2CCCCC2)C1 (stereo not given) 1.77%
Cc1ccsc1C(=O)N1C[C@@H](F)C[C@H]1C(=O)N1CCCCC1 -0.377%
Cc1ccc(C)c(S(=O)(=O)N2[C@@H]3CC[C@H]2CC(NC(=O)c2ccc(F)cc2)C3)c1 (stereo not given in full) 5.58%
CC(=O)N1CCN(C(=O)c2nc(-c3ccccc3)cs2)CC(O)C1 (stereo not given) -0.77%
Cc1nnc([C@H]2CCN(C3CCN(C)CC3)C2)o1 0.078% [at 77.1 µM]
COC(=O)c1ccc2nc(C[C@@H]3C[C@@H](C(C)C)[C@H](CNC(=O)c4cccnc4)C=C3C)[nH]c2c1 14.2%
CN(CCN1CCCCCC1)C(=O)c1cc(COc2ccccc2)[nH]n1 41.3%
CC(C)c1noc(Cn2nc(-c3ccccc3)c3ccccc3c2=O)n1 -1.52%
O[C@@H]1[C@@H](Cn2cc(C3CC3)nn2)C[C@@H](NCc2nccs2)[C@@H]1O 6.16%
COc1ccc(CNC(=O)[C@@H]2CCC[C@@H](NCc3cccnc3)CN(C)C(=O)C2)cc1 -2.15% [at 57.5 µM]
COCC1CN(C)CC12CCN(C(=O)Cc1ccc(OC)c(Cl)c1)CC2 (stereo not given) -6.13%
COCCN1CCOC[C@H]2CCN(C(=O)c3cnccn3)C[C@H]21 0.963%
COc1cccc([S+](=O)([O-])N2CCC3(C2)N=C(c2cccnc2)C(=O)N3)c1 (stereo not given) 4.07%
C=CCN(C)C(=O)CC1COc2ccc(C(=O)N(C)C)cc2N1C (stereo not given) 7.81%
COc1ccc2c(c1)C(CN1CCN(CC(=O)OC(C)(C)C)CC1)=CC(C)(C)O2 1.29%
O=C(O)C1Cn2cccc2C(=O)N1Cc1cccnc1 (stereo not given) 10%
COc1ccc(CNC(=O)C2CN(S(=O)(=O)C3CC3)CC23CCCCC3)cc1 (stereo not given) 42.6%
CCn1nc(C)cc1C(=O)NCc1cccnc1N1CCOCC1 9.45%
CN(C)C[C@@H]1CN(Cc2ccccn2)C[C@H]1NC(=O)c1ccc(Cl)s1 9.43%
COc1cccc([S+](=O)([O-])N2CCC23Cc2ccccc2NC3=O)c1 (stereo not given) -0.739%
O=C(O)c1ccnc(-c2ccnc(NCC(O)c3ccccc3Cl)n2)c1 (stereo not given) 0.618%
c1ccc(N2CCCC(c3nccn3Cc3ccncc3)C2)nc1 (stereo not given) -2.58%
Cc1ccc(-n2nc(C)c([C@H]3C=C[C@@H](OC(=O)Nc4ccc(C(C)C)cc4)C3)c2C)cc1Cl 1.71%
CN(C)S(=O)(=O)N1C[C@@H](Oc2cccnc2)C[C@H]1C(=O)N1CCOCC1 0.221%
Cc1cc(N2CCN(Cc3nnc(C4CC(N)C4)n3C)CC2)cc(C)n1 (stereo not given) 3.51%
COc1ccccc1-c1nnc2ccc(C(=O)N3CCN(C(C)=O)CC3)cn12 75.9%
CCCS(=O)(=O)N1CC(Oc2ccccc2-c2noc(C)n2)C1 -0.112%
CCCCN(C)C(=O)c1c(C)sc2ccn(CCC)c(=O)c12 54.6%
CN(C)C(=O)[C@]12CCCC[C@@H]1N(CCc1ccccc1)C(=O)CC2 34.5%
COc1cccc(N2CCN(C(=O)CCn3ccn4nc5c(c4c3=O)CCCC5)CC2)c1 2.68%
Cc1ccnn1CCC(=O)N1CCOC(Cc2ccc(F)cc2)C1 (stereo not given) -1.6%
COc1ccccc1Nc1ncc2c(n1)CN(C(=O)c1ccnn1C)CCN2 63.5% [at 57.5 µM]
CCn1nccc1C(=O)N1CC[C@@H]2CN(Cc3ccccc3)[C@@H]2C1 -1.31%
O=C(CCl)N1CCC2(CC1)CC(c1cccc(C(F)(F)F)c1)=NO2 1.2% [at 57.5 µM]
O=C(NCc1nnc2cc(-c3nc(C4CC4)no3)ccn12)c1nccc2ccccc12 51.9%
COC(=O)c1ccc2nc(CO[C@H]3CN(Cc4cccc(C#N)c4)C[C@H]3F)[nH]c2c1 5.97% [at 57.5 µM]
Cn1cnc(S(=O)(=O)N2CCCN(C(=O)c3nccn3C)CCNC(=O)CC2c2ccccc2)c1 (stereo not given) -12%
NC(=O)COc1ccc(C(=O)N[C@@H]2CN(Cc3ccccn3)CCC[C@H]2O)cc1 70.4% [at 57.5 µM]
O=C(Cn1cc(C(F)(F)F)ccc1=O)N1CCC2(CCCNC2=O)C1 (stereo not given) 69%
CC(C)N1C[C@@H]2OCC(=O)N(Cc3ccccc3)[C@@H]2C1 19.3% [at 77.1 µM]
O=C(CC1CCOCC1)Nc1ccc(N2CCOCC2)cc1 -5.65%
Cc1noc(C)c1-c1cc(-c2ccc(CN(C)C)cc2)cn2cncc12 35.3% [at 57.5 µM]
CNC(=O)c1cc(C2CC2)nc2onc(C3CCCN(C(=O)c4ccccc4OC)C3)c12 (stereo not given) -8.94%
CCNC(=O)Nc1ccc(OCC(=O)N2CCN(c3ccccn3)CC2)nc1 4.07%
CC(NC(=O)C1CCCN(c2cnc3nccnc3c2)C1)c1cccnc1 (stereo not given) 22.9%
CC(=O)NC1CC2(CCN(Cc3ccc(O)cc3)CC2)c2ccccc21 (stereo not given) 0.0678%
CC(=O)Nc1ccccc1NC(=O)CN1CCN(Cc2ncccc2C)CC1 0.932%
COCc1ncc(C)n1C1CCCN(C(=O)CCCc2ccccc2)C1 (stereo not given) -0.663%
Cc1c(CN2CC[C@H]3CC[C@@H](C2)N3)c(=O)n(-c2ccccc2)n1C -15.7%
O=C(NCCc1ccc(Cl)cc1)C1CN(C2CCCC2)C(=O)N1 (stereo not given) -2.82% [at 57.5 µM]
CCN1CCN(C(=O)Cn2nc(C)c3sc(-c4ccccc4)nc3c2=O)CC1 4.84%
Cc1ccc(NC(=O)COc2ccc(-c3nnc4n3CCCC4)cc2)cc1C -5.53%
COCCN1CCC2(CCC1=O)CN(c1ccc(C#N)cn1)CCN2C (stereo not given) 10.4%
CC1=NOC2(CCN(CC3CC3)CC2)C1 -0.356% [at 77.1 µM]
Cc1noc(C)c1-c1cnc(Nc2ccc(F)c(Cl)c2)c2c1CCO2 8.29% [at 57.5 µM]
C#CCNC(=O)CC[C@@H]1CNC(=O)[C@@H]2C[C@H](NC(=O)c3ccco3)CN12 9.64% [at 57.5 µM]
CCCN(C)C(=O)CC1COCCN1C(=O)Nc1cccc(SC)c1 (stereo not given) 9.19%
COC1C(=O)N(C2CCN(C(=O)c3cc(C)nn3C)CC2)C12CCOCC2 (stereo not given) -2.29%
Cc1cc(CNC(=O)c2cc(C(C)C)nn2C)c2[nH]c(C)c(C)c2c1 0.803%
O=C(NCc1ccccc1F)C1CC(c2ccccc2)CN(C(=O)COc2ccccc2)C1 (stereo not given) 0.0909%
Cn1nccc1CN1CCC2(C1)C(=O)Nc1ccccc12 (stereo not given) 3.26% [at 57.5 µM]
CCn1ncnc1C1CC(=O)Nc2cc(OC)c(NS(C)(=O)=O)cc21 (stereo not given) 5.2%
C[S+](=O)([O-])NC1CCCN(Cc2ccc(-c3cncnc3)cc2)C1 (stereo not given) -3.7%
CN(C(=O)CCc1nc2ccccc2[nH]1)C1CCc2nn(C)c(=O)n2CC1 (stereo not given) 36.8%
COc1ccc(NC(=O)c2ccc3c(c2)OCC(=O)N(C)C3)c(F)c1 7.07% [at 57.5 µM]
COc1ccccc1OCCNC(=O)C(C)C1CCOCC1 (stereo not given) -4.03%
Cc1ccc(C(=O)N2CCc3sc(C(=O)NCc4cc(F)cc(F)c4)cc3C2)cc1 1.07%
Cc1nc(CN2C[C@H](C(=O)N3CCN(c4ccccn4)CC3)C[C@@H]2c2ccc(F)cc2)cs1 6.89%
Cc1cnc(CCNC(=O)c2n[nH]c3ccccc23)n1C1CCC1 37.3%
CC(C)(C)OCC1CN(Cc2cccs2)[S+](=O)([O-])c2cccnc2O1 (stereo not given) 3.06% [at 16.1 µM]
COc1ncccc1-c1nc(-c2c(C)noc2C)cc2c1cc(C)n2CCN(C)C 14.3% [at 57.5 µM]
COC(=O)[C@H](Cc1ccc(OC)cc1)NC(=O)[C@H]1CN(C(=O)c2ccc(N(C)C)cc2)CCN1C(=O)c1cccs1 12.4%
COCCn1nc2n(c1=O)CCN(Cc1ccc(Br)o1)CC2 1.06%
CC(C)OCCCNC(=O)c1cc(-c2cccc(C(F)(F)F)c2)c2cccn2n1 7.21%
CN(CCc1ccccn1)c1ncccc1CNC(=O)C1CCc2ccccc21 (stereo not given) -3.09%
c1ccc(-n2cc(CN3CCCN(Cc4cccs4)CC3)nn2)cc1 26.8%
COc1cc(SC)c(OC)cc1CN1CCC2(CC(=O)NC2=O)C1 (stereo not given) 4.88%
COCCCNC(=O)c1cnc2n[nH]c(-c3ccccc3)c2n1 3.91% [at 57.5 µM]
CCCCc1ccc(NC(=O)CN2C(=O)NC3(CCS(=O)(=O)CC3)C2=O)cc1 -0.795%
CCOc1ccc(CNC(=O)C2c3ccccc3CC(=O)N2CC)cc1 (stereo not given) 25.1%
O=C(NCc1ccccc1)c1ccccc1OC1CN(C2CCC2)C1 -6.25%
Cc1cn2nc(C(=O)NC3CCC(C)CC3)cc2c(N2CCCC2)n1 (stereo not given) 81.6%

Ordered by number of heavy atoms (rising): part of the list above
Activity % (negative = inhibition), inactive:
c1ccc(-n2cc(CN3CCCN(Cc4cccs4)CC3)nn2)cc1 26.8%
CC(=O)NC1CC2(CCN(Cc3ccc(O)cc3)CC2)c2ccccc21 (stereo not given) 0.0678%
COc1ccccc1-c1nnc2ccc(C(=O)N3CCN(C(C)=O)CC3)cn12 75.9%

Reprinted from the listing, 4 compounds:
Activity % (negative = inhibition), inactive:
CCCCN(C)C(=O)c1c(C)sc2ccn(CCC)c(=O)c12 54.6%
CN(C)C(=O)[C@]12CCCC[C@@H]1N(CCc1ccccc1)C(=O)CC2 34.5%
COc1cccc(N2CCN(C(=O)CCn3ccn4nc5c(c4c3=O)CCCC5)CC2)c1 2.68%
Cc1ccnn1CCC(=O)N1CCOC(Cc2ccc(F)cc2)C1 (stereo not given) -1.6%
